For 27 compounds, survivor count and T/C results are on record in PubChem BioAssay AID330 (DTP/NCI, 2004).

The list does not hold the whole screen: it gathers tests that were run many times, whatever their T/C, doses with no T/C, and many T/C values between a quarter and a half above the control. Other doses and runs of a compound stand elsewhere. T/C gives the treated animals as a percentage of the vehicle group. Some doses have a count of surviving animals in place of a T/C: the source files T/C as zero there, which appears to mark a toxic dose or a test without result, not a measured value. Some doses without a T/C left all or most animals alive at the check, yet need not have been tolerated: survival well below the control is almost never listed, so the zero probably covers shortened survival too. Counts of survivors are from the toxicity check (mostly the fifth day) where no day follows; animals may have died later. Schedules are NCI's codes, read here as Q, the interval in days (D) or hours (H), X, the number of doses. Some entries hold several experiments; the results are listed from low to high. For survival time, this PubChem deposit counts one and a half times the control or more as active, and values a quarter to a half above the control carry no call in these data; other NCI protocols may use other cut-offs. Some T/C values are followed by the survivors on the day toxicity was checked, most often the fifth; where none is given, no animal had died by that day.

This assay concerns P388 leukemia ip, CD2F1 mice, survival T/C. Put plainly: NCI In Vivo Anticancer Drug Screen. Data for tumor model P388 Leukemia (intraperitoneal) in CD2F1 (CDF1) mice. The following applies: T/C endpoint: median survival time, higher T/C = longer survival.
Setting [1] is: dose: 12.5 mg/kg/injection, schedule: Q01DX009 (ip), vehicle: saline with Tween-80.
[2] abbreviates: dose: 25.0 mg/kg/injection, schedule: Q01DX009 (ip), vehicle: saline with Tween-80.
Setting [3] is: dose: 100.0 mg/kg/injection, schedule: Q01DX009 (ip), vehicle: saline with Tween-80.
The mark [4] stands for this setting: dose: 240.0 mg/kg/injection, schedule: Q01DX005 (ip), vehicle: Klucel (hydroxypropylcellulose) (HPC).
[5] abbreviates: dose: 200.0 mg/kg/injection, schedule: Q01DX005 (ip), vehicle: saline.
Where [6] appears, read: dose: 100.0 mg/kg/injection, schedule: Q01DX005 (ip), vehicle: Klucel (hydroxypropylcellulose) (HPC).
[7] abbreviates: dose: 200.0 mg/kg/injection, schedule: Q01DX005 (ip), vehicle: Klucel (hydroxypropylcellulose) (HPC).
[8] abbreviates: dose: 50.0 mg/kg/injection, schedule: Q01DX009 (ip), vehicle: saline.
Where [9] appears, read: dose: 50.0 mg/kg/injection, schedule: Q01DX009 (ip), vehicle: suspension in saline.
[10] abbreviates: dose: 400.0 mg/kg/injection, schedule: Q04DX002 (ip), vehicle: saline with Tween-80.
[11] abbreviates: dose: 100.0 mg/kg/injection, schedule: Q01DX009 (ip), vehicle: saline.
Setting [12] is: dose: 200.0 mg/kg/injection, schedule: Q01DX009 (ip), vehicle: saline.
[13] abbreviates: dose: 200.0 mg/kg/injection, schedule: Q01DX009 (ip), vehicle: saline with Tween-80.
Where [14] appears, read: dose: 50.0 mg/kg/injection, schedule: Q01DX005 (ip), vehicle: Klucel (hydroxypropylcellulose) (HPC).

For `COc1cc(C(=O)CC(=O)Cc2ccc3ccccc3n2)cc(OC)c1OC`, the survivor count is 6 of 6 (dose: 15.0 mg/kg/injection, schedule: Q01DX005 (ip), vehicle: saline with Tween-80); 6 of 6 (dose: 30.0 mg/kg/injection, schedule: Q01DX005 (ip), vehicle: saline with Tween-80); 6 of 6 (dose: 60.0 mg/kg/injection, schedule: Q01DX005 (ip), vehicle: saline with Tween-80).
For `O=[N+]([O-])c1ccccc1OCC1CO1` (stereo not given), the survivor count (dose: 200.0 mg/kg/injection, schedule: Q01DX009 (ip), vehicle: Klucel (hydroxypropylcellulose) (HPC)) was 4 of 6.
`CC1CN1C(=O)c1cc(C(=O)N2CC2C)cc(C(=O)N2CC2C)c1` (stereo not given): the T/C runs as follows: under setting [1], 127 % of control; under setting [2], 127 % of control; (dose: 25.0 mg/kg/injection, schedule: Q04DX003 (ip), vehicle: saline with Tween-80) 131 % of control; (dose: 50.0 mg/kg/injection, schedule: Q04DX003 (ip), vehicle: saline with Tween-80) 127 % of control; (dose: 100.0 mg/kg/injection, schedule: Q04DX003 (ip), vehicle: saline with Tween-80) 127 % of control.
For the compound `Nc1cc2c(c[n+](CCCCCCCCCBr)c3ccccc23)c2ccccc12`, the T/C was 145 % of control (dose: 0.78 mg/kg/injection, schedule: Q04DX003 (ip), vehicle: other); 135 % of control (dose: 1.56 mg/kg/injection, schedule: Q04DX003 (ip), vehicle: other); 147 % of control (dose: 3.13 mg/kg/injection, schedule: Q04DX003 (ip), vehicle: other). Moreover, the survivor count is, setting by setting: (dose: 6.25 mg/kg/injection, schedule: Q04DX003 (ip), vehicle: other) 6 of 6; (dose: 12.5 mg/kg/injection, schedule: Q04DX003 (ip), vehicle: other) 1 of 6 and 5 of 6; (dose: 25.0 mg/kg/injection, schedule: Q04DX003 (ip), vehicle: other) 0 of 6.
Turning to `Cc1cccc(=N)n1CCC(=O)O`, the survivor count (dose: 400.0 mg/kg/injection, schedule: Q01DX009 (ip), vehicle: saline) is on record as 4 of 6.
As for `O=C1O/C(=C2/OC(=O)c3ccccc32)c2ccccc21`, the survivor count is 6 of 6 under setting [2] and 5 of 6 under setting [3].
With `Cc1ccc(Cl)cc1NC(=O)OCCN(C)C(=O)Nc1cc(Cl)ccc1C`, the survivor count reads like this: (dose: 60.0 mg/kg/injection, schedule: Q01DX005 (ip), vehicle: Klucel (hydroxypropylcellulose) (HPC)) 6 of 6; (dose: 120.0 mg/kg/injection, schedule: Q01DX005 (ip), vehicle: Klucel (hydroxypropylcellulose) (HPC)) 6 of 6; under setting [4], 6 of 6.
For `CN(C)CCOc1ccccc1NC1=C(Cl)C(=O)C(Nc2ccccc2OCCN(C)C)=C(Cl)C1=O`, the survivor count by setting is: (dose: 50.0 mg/kg/injection, schedule: Q01DX005 (ip), vehicle: saline) 2 of 6 and 2 of 5; (dose: 100.0 mg/kg/injection, schedule: Q01DX005 (ip), vehicle: saline) 0 of 5; under setting [5], 0 of 5.
With `C=C1C(=O)OC2/C=C(CO)/C=C\C3OC3(C)CC(OC(=O)/C(C)=C/COC(C)=O)C12` (stereo not given), the survivor count is, setting by setting: under setting [6], 0 of 6; under setting [7], 0 of 6.
With `C=C[C@]1(C)C[C@@H](OC(=O)CO)[C@@]2(C)[C@H](C)CC[C@]3(CCC(=O)[C@H]32)[C@@H](C)[C@@H]1O`, the T/C (dose: 100.0 mg/kg/injection, schedule: Q01DX009 (ip), vehicle: Klucel (hydroxypropylcellulose) (HPC)) is 94, 98 [5 of 6 alive], 109 [5 of 6 alive], 120 % of control. Besides, the survivor count (dose: 400.0 mg/kg/injection, schedule: Q01DX009 (ip), vehicle: Klucel (hydroxypropylcellulose) (HPC)) was 2 of 6.
As to `Nc1nc(Nc2ccc(C3=NCCN3)cc2)nc(Nc2ccc(C3=NCCN3)cc2)n1`, the T/C was 125 % of control (dose: 12.5 mg/kg/injection, schedule: Q01DX009 (ip), vehicle: saline); 125 % of control (dose: 12.5 mg/kg/injection, schedule: Q01DX009 (ip), vehicle: suspension in saline); 126 % of control (dose: 25.0 mg/kg/injection, schedule: Q01DX009 (ip), vehicle: saline); 133 % of control [5 of 6 alive] (dose: 25.0 mg/kg/injection, schedule: Q01DX009 (ip), vehicle: suspension in saline); 144 % of control under setting [9]. Also, the survivor count under setting [8] is 4 of 6.
With `COc1ccc(N/C=C2\C(=O)CCc3c2oc2cc(Cl)c(O)c(Cl)c32)cc1`, the survivor count under setting [4] was 2 of 6.
Consider `CN(C)CCCC1(c2cccc(Cl)c2)SC(C)(C)c2ccccc21` (stereo not given), for which the survivor count (dose: 100.0 mg/kg/injection, schedule: Q01DX001 (ip), vehicle: saline) is reported as 2 of 5.
Consider `Cc1ccc(NCc2ccccn2)nc1`, for which the survivor count (dose: 200.0 mg/kg/injection, schedule: Q01DX005 (ip), vehicle: saline with Tween-80) is given as 0 of 6.
As for `N#CC1=C(C#N)C(=O)C(Cl)=C(Cl)C1=O`, the survivor count is, setting by setting: (dose: 25.0 mg/kg/injection, schedule: Q04DX003 (ip), vehicle: saline) 3 of 6; (dose: 50.0 mg/kg/injection, schedule: Q04DX002 (ip), vehicle: saline with Tween-80) 1 of 6; (dose: 100.0 mg/kg/injection, schedule: Q04DX002 (ip), vehicle: saline with Tween-80) 0 of 6; (dose: 200.0 mg/kg/injection, schedule: Q04DX002 (ip), vehicle: saline with Tween-80) 0 of 6; under setting [10], 0 of 6.
`CN1C(=O)N(C)C2=NC(=O)N(C)C2(C(Cl)(Cl)Cl)C1=O` (stereo not given): the survivor count is 0 of 6 (dose: 120.0 mg/kg/injection, schedule: Q01DX005 (ip), vehicle: saline with Tween-80) and 0 of 6 (dose: 240.0 mg/kg/injection, schedule: Q01DX005 (ip), vehicle: saline with Tween-80).
For the compound `O=C1CSC(=S)N1c1ccc(Cl)c([N+](=O)[O-])c1`, the survivor count under setting [9] was 5 of 6. The T/C reads like this: under setting [11], 128 % of control; under setting [12], 128 % of control.
In the case of `CCCCC/C(C=C(C#N)C#N)=C/c1ccccc1`, the survivor count was 6 of 6 under setting [2] and 5 of 6 under setting [13]. Further, the T/C under setting [3] was 143 % of control.
For the compound `CN1C(N)=NC(c2ccccc2)=CC1(C)c1ccccc1` (stereo not given), the survivor count reads like this: under setting [14], 0 of 5; under setting [6], 0 of 5; under setting [7], 0 of 5.
On to `Cc1ccc(S(=O)(=O)OI(C#CC(C)(C)C)c2ccccc2)cc1`, for which the survivor count is 6 of 6 under setting [6] and 0 of 6 under setting [7].
As for `Cc1cc(C)c(N(C)C)c(C)c1`, under setting [10], the survivor count is listed as 3 of 6.
Consider `N=C(N)c1ccc(N=Nc2ccc(O)c3c2ccc[n+]3[O-])cc1`, for which the survivor count under setting [14] is given as 2 of 6, the survivor count under setting [6] is reported as 0 of 6 and the survivor count under setting [7] is 0 of 6.
In the case of `COc1cccc(C(Cc2ccccc2)Nc2ccccc2)c1OC` (stereo not given), the survivor count under setting [6] is 6 of 6.
For the compound `C1=CCC2CSCC2C1` (stereo not given), the survivor count (dose: 150.0 mg/kg/injection, schedule: Q01DX001 (ip), vehicle: saline sonified) was 0 of 6.
`OCCNCCN=C1CCC(=NCCNCCO)CC1`: the survivor count under setting [5] was 2 of 5.
`C[Si](C)(C)n1nnn(-c2ccccc2)c1=O`: the T/C is 141 % of control under setting [1], 128 % of control under setting [2], 126 % of control under setting [3] and 126 % of control [4 of 6 alive] under setting [13]. Moreover, where the note is “dose: 400.0 mg/kg/injection, schedule: Q01DX009 (ip), vehicle: saline with Tween-80”, the survivor count was 1 of 6.
For the compound `CN1C=[N+](C)Cc2nnn(Cc3ccccc3)c21`, the survivor count under setting [8] is 0 of 6, the survivor count under setting [11] is 0 of 6 and the survivor count under setting [12] is listed as 0 of 6.
